From PubChem BioAssay AID1347423 (Functional Genomics Laboratory (NCATS/FGL), 2020)
The campaign covered roughly 52,000 sequences. About 210 (0.4%) were called active.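 The calls were made as follows: active = gene whose silencing raises cell survival under the drug, median off-target-corrected z-score across its silencing RNAs 2 or more; inactive = the rest.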 Some of the results follow.

test: Resistance to Poly (ADP-Ribose) Polymerase inhibitor: Gene Identification via Genome-wide siRNA Screen; settings: mouse BRCA2 R2336H ES cells, olaparib, CellTiter-Glo viability; stronger effect = higher value
Outline: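 Mouse BRCA2 R2336H ES cells were reverse-transfected with siRNA (20 nM final), treated at 48 h with 500 nM olaparib, and read by CellTiter-Glo after 72 h. Scores: MAD-based z per siRNA, median per gene, seed off-target correction.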

Row | Sequence | z-score
1 | GGCUUUCUGGGAACAGAGATT against Dspg3 | inactive: -0.627
2 | CCUCCUCCAACCAUCAGUUTT against Olfr695 | inactive: 0.276
3 | CCUAGUAACUAUCUACCUCTT against Sval3 | inactive: -0.537
4 | CGAUUCCAACAAGAAAGUGTT against 4632412N22Rik | inactive: -0.0925
5 | GCGCAACUAAAACAGAUUGTT against Eif2ak1 | inactive: -0.135
6 | GGACAUAAGACCAUCUCCCTT against Olfr49 | inactive: 0.835
7 | GGAGAACAGCACACUGAACTT against Trappc5 | inactive: 1.31
8 | GCUGGAUUUGGACUCUUAGTT against V1rc29 | inactive: -3.04
9 | GCUGAGGCUGUGGAAACCATT against Nradd | inactive: 0.479
10 | GGUGACGGUGUACGAGUUATT against Crybb3 | inactive: 0.107
11 | GGAGAAAGGAUUAUAGAUGTT against Klk7 | inactive: 1.12
12 | GGAUAAUUCAAAGACUGGATT against A630091E08Rik | inactive: -0.809
13 | GGAAAUAUGGACAAGAACATT against Tulp4 | inactive: -1.48
14 | GGCACAGUUCUGGAAGAUGTT against Qtrt1 | inactive: -0.579
15 | CGGUAUGUGUUGUCAGAGGTT against P42pop | inactive: -0.926
16 | GGGAAGUAGCCAUCACACCTT against C330008L01Rik | inactive: 1.63
17 | GGAAUGUAUCCAGGACUUCTT against Brd4 | inactive: -1.95
18 | GCAGCAAUAUAAGGACAGUTT against Grin2b | inactive: 0.0462
19 | AUGUGGCAAAACCUUUGCATT against BC018101 | inactive: 0.244
20 | GGAGUGACUCCUACAAAAUTT against Ms4a4b | inactive: 0.533
21 | GGACUUACAGCUAAACAACTT against Qk | inactive: 1.33
22 | GGUUGCCUUUCUGUCGUUCTT against Olfr558 | inactive: -1.32
23 | GGCGAAAGUGCUUUUCCUGTT against 5830443L24Rik | inactive: 1.7
24 | GGGACCUGUUUCUAUCCUGTT against 1700111I05Rik | inactive: 0.605
25 | CCCAACAUUUUCUAUGUGATT against 2410008K03Rik | inactive: -0.202
26 | GGUCCAUUGGGAGUUUGAGTT against Slc2a6 | inactive: -1.29

2 successive entries already listed:
Row | Sequence | z-score
15 | CGGUAUGUGUUGUCAGAGGTT against P42pop | inactive: -0.926
16 | GGGAAGUAGCCAUCACACCTT against C330008L01Rik | inactive: 1.63

Next part.

Row | Sequence | z-score
27 | GGUGUUUGUUCGGAAGCUCTT against Pes1 | inactive: -1.54
28 | GGUGGUGUAAUAGCUAAGATT against Hspa12b | inactive: 1.09
29 | CCAAUGUGGAUGAAUCGAATT against Pdcd11 | inactive: 1.1
30 | GGAAAGUUUGCACUGUAAATT against Tiam2 | inactive: 0.607
31 | CCCAUAUUCUACACAUUCUTT against Gadd45gip1 | inactive: -0.0949
32 | CCCGUUAUCUUCCCAACUGTT against 4733401H21Rik | inactive: 0.111
33 | GGACUGUUUGGAUUGCAUATT against Dock7 | inactive: -0.822
34 | CGCAGAAAGAAAUAGCAAUTT against B2m | inactive: 1.24
35 | GGGUUUGAUCAACAGAGCCTT against Idb1 | inactive: 0.765
36 | GGUAUAUGGAACCAUGGGATT against Psmb9 | inactive: 0.156
37 | GCCUCGAGGACAAAACAUCTT against Amacr | inactive: -0.597
38 | GGAUGCUCUCCAAUGAAUCTT against E130310N06 | inactive: 0.495
39 | UGCUGUGGUCACUCCCAUGTT against Olfr457 | inactive: 0.391
40 | GGUCCUGGAAUCUCAAAAUTT against Entpd1 | inactive: -0.282
41 | CGAUUUAUUGGAGGCGCACTT against Glrx2 | inactive: -0.129
42 | GGUCUUACUCCAGUCUGCCTT against Rufy1 | inactive: -0.0238
43 | CCAGAAUUGAACUUCAAGUTT against 2610008E11Rik | inactive: 0.365
44 | GCCCAUUGUAUGACUGCCGTT against Gfra2 | inactive: -0.73
45 | CCCUUUCUGUACUCUUAUCTT against Tcfl4 | inactive: 0.937
46 | GGACUUGUUCUACAAGUACTT against Sfrs9 | inactive: -0.25
47 | GGGAAUUUCGGCUGUUUUATT against Cts8 | inactive: 0.0412
48 | AGCUCUAGCAACUAAGCGCTT against LOC382109 | inactive: 1.07
49 | GGUUUGGCCAUCUCCUAUGTT against 0610009O03Rik | inactive: 1.61
50 | GCAGUAUUACAAUAGGAUCTT against Magea9 | inactive: 0.74
51 | GGUGACCAAAAUGACUUGUTT against Slc39a3 | inactive: 2.03
52 | CGAUGUGAGUUGCAGAUAUTT against 1700011J10Rik | inactive: -1.35

Row | Sequence | z-score
53 | GAUACAGAAUGUCUCAUCCTT against Olfr1128 | inactive: 0.689
54 | GCGCAGAUGGAUCCUAACATT against Tnfsf11 | inactive: 1.1
55 | GGCCUGUGAGUGUGACAAATT against Pla2g2c | inactive: -0.19
56 | GGGUCAACCAGCAAAACCUTT against AU021034 | inactive: -1.15
57 | GGACGAUUCCCAGUUUCUGTT against Phf1 | inactive: -0.468
58 | CCCGAAUGAUCAAACCAAGTT against 4930555I21Rik | inactive: -0.68
59 | CGAGACCUACAUCUUGAAUTT against Smpd1 | inactive: 1.51
60 | CGUAAUUUUGGAAAAGCCUTT against Emb | inactive: -1.31
61 | GGAGAUUCCCGUGGUUAUUTT against 2410004H05Rik | inactive: 0.0648
62 | GGCCAUGCCACUCAUCUUUTT against Tpst2 | inactive: 1.93
63 | GCAUAGUAAUCUCCGAAUATT against MGC67181 | inactive: 1.64
64 | GGAAGAAAGGAAAUGUUGUTT against Ctsh | inactive: 0.0426
65 | GGCUCCAGGAAACAAAGAUTT against Ubtd1 | inactive: -0.686
66 | GCCUUCUGCUUAGUUACUGTT against Krtap6-1 | inactive: 0.793
67 | CGAUACCCUCACCAGAUUUTT against Limk1 | inactive: -1.15
68 | GGGUACCUUCUGAUGUUUUTT against 2410170E21Rik | inactive: 1.01
69 | GGGCUUCCUAGUAUUCCACTT against Tuba4 | inactive: -0.792
70 | GGAGACUCAGCAGAUUAUUTT against Gzmn | inactive: 0.315
71 | GGAUGGCCAAGUAUGAACUTT against Gpr153 | inactive: -0.53
72 | GGAGCUGUGAGCAUUACUGTT against 2610019I03Rik | inactive: -0.497
73 | GCUAGUAUUAAAGAAGAGCTT against Myh10 | inactive: 1.52
74 | GGUGCCAUUGAUUCUGUAGTT against 6330419J24Rik | inactive: -0.789
75 | GCAACUCUGAGGUUGCUAGTT against Pgam1 | inactive: 0.414
76 | GGAACUCCUGACUCUCAGATT against Prss25 | inactive: 0.231
77 | GCUUAACUCUAGAGUAUGCTT against Pzp | inactive: 0.00253
78 | GGUCCUUACCUCCAAUCCATT against Fndc5 | inactive: 1.79

Another view of part of the listing above:
Row	Sequence	z-score
37	GCCUCGAGGACAAAACAUCTT against Amacr	inactive: -0.597
38	GGAUGCUCUCCAAUGAAUCTT against E130310N06	inactive: 0.495
39	UGCUGUGGUCACUCCCAUGTT against Olfr457	inactive: 0.391
40	GGUCCUGGAAUCUCAAAAUTT against Entpd1	inactive: -0.282
41	CGAUUUAUUGGAGGCGCACTT against Glrx2	inactive: -0.129
42	GGUCUUACUCCAGUCUGCCTT against Rufy1	inactive: -0.0238

Later entries

Row | Sequence | z-score
79 | GGCUGGAAAAAAUUCAGAATT against Mtmr7 | inactive: -0.171
80 | CCAUCAUGUAUCAAUGACATT against Olfr867 | inactive: 0.947
81 | GGAAGUGGUGGCCAUCAAGTT against Stk25 | inactive: 2.47
82 | CCUUCUGAAACCUAGCUCATT against Tradd | inactive: 0.716
83 | GGGUCCUCUUUAAAAGGCUTT against Smc6l1 | inactive: 0.0836
84 | CCGUGGGAUUUAAGAUAUCTT against Rab34 | inactive: 1.57
85 | GGUUAUACCAGUCAUGACATT against BC005537 | inactive: 0.171
86 | CCUCGCUAUAGAUUUUAACTT against Art2b | inactive: 0.76
87 | GCUUCAGACCUAUUUACCATT against Wdr26 | inactive: -2.21
88 | GGGUGUUUGAAUCUAGUAUTT against Nktr | inactive: 0.519
89 | GGUCCACCUGUGAAUGUGATT against Glra4 | inactive: -1.36
90 | GGGAAGUGACCUUCUACAGTT against Ms4a10 | inactive: 0.418
91 | CCAAGGGUAUGUCCAUCAUTT against MGC78233 | inactive: 0.394
92 | GGCUAACUCCCAUAAAGAUTT against BC026374 | inactive: 0.185
93 | GCAGAUUAGCUUCGUCAACTT against Top2a | inactive: -2.19
94 | CGAACCUAAGGGUUACUAUTT against Tgfb3 | inactive: -1.24
95 | GGCCAAAAGUGUUCUCUACTT against Olfr1101 | inactive: -0.109
96 | CAUCUGUACUACAAACUAATT against 1100001G20Rik | inactive: -0.572
97 | CCCUACUAUUGACGAAAACTT against Hpn | inactive: 0.505
98 | CCCUUACAUCCAUCAACUATT against Dcbld2 | inactive: -0.65
99 | GGCACAAGCCAAAGUAUUUTT against Igbp1 | inactive: 0.0335
100 | GGAGCAGAAAGAAGAACUGTT against Bmp10 | inactive: -1.65
101 | GGCUAUAAAAGCACAGUUUTT against Slc25a26 | inactive: 0.17
102 | GGGUAUUUCCACUUCAUAGTT against BC031140 | inactive: -1.28
103 | GGAAAUCAACCACUUUCUCTT against Olfr1494 | inactive: -0.237
104 | GGAGUAUGCACCACUCAAATT against Acrv1 | inactive: -0.114
